No constants are given. Whether binding was seen depends on the method and setting. Some entries that bind do so weakly or less than the wild type.
Columns and labels:
control peptide p333 [1] = target: T1, control peptide p333; assay: ELISA; peptides p344 or p333 immobilised (2 ug/mL in PBS pH 9.5) on glutaraldehyde-treated 96-well plates; CTLA-4Fc or B7-1Fc added at different concentrations, 1 h at 37 C; detected with anti-human IgG HRP; both purified
T1 sequence (peptide): EGLNRPSGGCG

Protein sequences, listed by entry. Tags and fused reporters are not part of them. Residues count along the entry.
UniProt P16410, residues 36-161: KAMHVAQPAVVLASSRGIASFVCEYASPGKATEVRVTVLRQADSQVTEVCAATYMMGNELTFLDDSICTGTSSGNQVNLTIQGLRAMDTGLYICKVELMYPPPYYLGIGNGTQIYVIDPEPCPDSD

synthetic peptide p344 [2] = target: T2, synthetic peptide p344; assay: as above
T2 sequence (peptide): ARHPSWYRPFEGCG

control peptide p333 [3] = target: T1, control peptide p333; assay: peptide or protein array; CTLA-4Fc applied on microarrays of 330034 peptides with random sequences; detected with fluorescence-labeled mAb against human IgG; both purified
synthetic peptide p344 [4] = target: T2, synthetic peptide p344; assay: as above

Row | binding (control peptide p333 [1]) | binding (synthetic peptide p344 [2]) | binding (control peptide p333 [3]) | binding (synthetic peptide p344 [4]) | Substance
1 | no binding | no binding | – | – | recombinant fusion protein B7-1Fc (from UniProt P33681 35-242) (Fc fusion)
2 | no binding | binds | no binding | binds | recombinant fusion protein CTLA-4Fc (from UniProt P16410 36-161) (Fc fusion)
